Laboratory results as given in PubChem BioAssay AID330 (DTP/NCI, 2004).
The list is a part of this screen's results and no random one: it is rich in T/C values a quarter to a half above the control, in often repeated tests (any T/C) and in doses without a T/C. Other doses and runs of a compound stand elsewhere. T/C gives the treated animals as a percentage of the vehicle group. Some entries give survivors of the animals treated and no T/C: the source holds a T/C of zero for them, seemingly a mark for toxic or unscored doses. Some survivor counts are full or nearly so, which does not show that the dose was tolerated: survival well below the control is almost never listed, so the zero probably covers shortened survival too. Survivors were counted at the toxicity check, usually on the fifth day, unless a day is given; later deaths do not show. Schedule codes are those of the source, read here as Q, the interval in days (D) or hours (H), X, the number of doses. Some doses were run more than once; the results are listed from low to high. For survival time, the PubChem record calls one and a half times the control and up active, and a quarter to a half above the control has no call in these data; cut-offs in other NCI protocols can differ. Some T/C values carry the count of animals alive at the toxicity check (mostly the fifth day); without a count, all were alive then.

Tested on: P388 leukemia ip, CD2F1 mice, survival T/C
Assay: NCI In Vivo Anticancer Drug Screen. Data for tumor model P388 Leukemia (intraperitoneal) in CD2F1 (CDF1) mice
Details: T/C endpoint: median survival time, higher T/C = longer survival
[1] = dose: 400.0 mg/kg/injection, schedule: Q04DX003 (ip), vehicle: Klucel (hydroxypropylcellulose) (HPC)
[2] = dose: 200.0 mg/kg/injection, schedule: Q01DX001 (ip), vehicle: Klucel (hydroxypropylcellulose) (HPC)
[3] = dose: 400.0 mg/kg/injection, schedule: Q01DX001 (ip), vehicle: Klucel (hydroxypropylcellulose) (HPC)
[4] = dose: 400.0 mg/kg/injection, schedule: Q04DX002 (ip), vehicle: Klucel (hydroxypropylcellulose) (HPC)
[5] = dose: 200.0 mg/kg/injection, schedule: Q01DX009 (ip), vehicle: saline with Tween-80
[6] = dose: 50.0 mg/kg/injection, schedule: Q04DX003 (ip), vehicle: saline with Tween-80
[7] = dose: 100.0 mg/kg/injection, schedule: Q04DX003 (ip), vehicle: saline with Tween-80
[8] = dose: 200.0 mg/kg/injection, schedule: Q04DX003 (ip), vehicle: saline with Tween-80
[9] = dose: 100.0 mg/kg/injection, schedule: Q01DX009 (ip), vehicle: saline with Tween-80
[10] = dose: 12.5 mg/kg/injection, schedule: Q01DX001 (ip), vehicle: saline with Tween-80
[11] = dose: 25.0 mg/kg/injection, schedule: Q01DX009 (ip), vehicle: saline with Tween-80

NC(=S)N/N=C\C=N\Nc1ccccc1
survivor count [1]: 1 of 6

C1CC2CC1C13OC1C1(CC1)C1OC213 (stereo unspecified)
T/C [2]: 133 % of control | T/C [3]: 131 % of control | survivor count (dose: 800.0 mg/kg/injection, schedule: Q01DX001 (ip), vehicle: Klucel (hydroxypropylcellulose) (HPC)): 3 of 6

COc1cccc2c1C(CO)N1C(C#N)C3CC(C(=O)O)C(C1C2)N3C (stereo unspecified)
T/C (dose: 1.57 mg/kg/injection, schedule: Q01DX005 (ip), vehicle: suspension in saline): 132 % of control | T/C (dose: 3.12 mg/kg/injection, schedule: Q01DX005 (ip), vehicle: suspension in saline, evaluated on day 19): 148 % of control | T/C (dose: 3.12 mg/kg/injection, schedule: Q01DX005 (ip), vehicle: suspension in saline, evaluated on day 30): 132 % of control | T/C (dose: 3.13 mg/kg/injection, schedule: Q01DX005 (ip), vehicle: suspension in saline): 131 % of control | T/C (dose: 6.25 mg/kg/injection, schedule: Q01DX005 (ip), vehicle: suspension in saline): 148 % of control | survivor count (dose: 25.0 mg/kg/injection, schedule: Q01DX005 (ip), vehicle: suspension in saline): 5 of 6 | survivor count (dose: 50.0 mg/kg/injection, schedule: Q01DX005 (ip), vehicle: saline): 6 of 6 | survivor count (dose: 50.0 mg/kg/injection, schedule: Q01DX005 (ip), vehicle: suspension in saline): 1 of 6 and 6 of 6

CSc1ccc(/C=N/N=c2ccn(-c3ccc(Cl)cc3)cc2)cc1
survivor count [2]: 3 of 6 | survivor count [3]: 1 of 6

Cc1ncc(CO)c(CO)c1OCC(O)CN1CCN(C(=O)c2ccccc2)CC1 (stereo unspecified)
survivor count (dose: 240.0 mg/kg/injection, schedule: Q01DX005 (ip), vehicle: saline): 1 of 6

CCN(CC)Cc1ccc(N)cc1O
survivor count (dose: 400.0 mg/kg/injection, schedule: Q01DX009 (ip), vehicle: saline): 0 of 6 and 1 of 6

Cn1c2c(c3cc(Cl)ccc31)-c1ncncc1CC2
survivor count (dose: 200.0 mg/kg/injection, schedule: Q04DX002 (ip), vehicle: Klucel (hydroxypropylcellulose) (HPC)): 5 of 5 | survivor count [4]: 5 of 5

C1=CC2C(O1)OC2c1ccc2ccccc2c1 (stereo unspecified)
survivor count (dose: 30.0 mg/kg/injection, schedule: Q01DX005 (ip), vehicle: Klucel + Tween-80): 6 of 6 | survivor count (dose: 120.0 mg/kg/injection, schedule: Q01DX005 (ip), vehicle: Klucel + Tween-80): 0 of 6 | survivor count (dose: 240.0 mg/kg/injection, schedule: Q01DX005 (ip), vehicle: Klucel + Tween-80): 0 of 6

Nc1ncnc2c1cnn2Cc1ccc(Cl)cc1
survivor count [5]: 6 of 6

CCCNC1=C(C)C(=O)C2=C(C1=O)[C@H](COC(N)=O)[C@]1(OC)[C@@H]3N[C@@H]3CN21
T/C (dose: 3.13 mg/kg/injection, schedule: Q01DX009 (ip), vehicle: saline sonified): 143 % of control | survivor count (dose: 12.5 mg/kg/injection, schedule: Q01DX009 (ip), vehicle: saline sonified): 6 of 6 | survivor count (dose: 25.0 mg/kg/injection, schedule: Q04DX003 (ip), vehicle: saline with Tween-80): 6 of 6 | survivor count [6]: 6 of 6

c1cc(-c2cc3ccc(C4=NCCN4)cc3s2)ccc1C1=NCCN1
survivor count (dose: 100.0 mg/kg/injection, schedule: Q04DX003 (ip), vehicle: saline): 0 of 6

CSC(SC)=C(C#N)c1nc(SC)c(C#N)c(SC)n1
survivor count (dose: 200.0 mg/kg/injection, schedule: Q04DX003 (ip), vehicle: saline): 3 of 6

COc1cc(C2=N/C(=C\c3ccccc3O)C(=O)O2)cc(OC)c1OC
survivor count (dose: 200.0 mg/kg/injection, schedule: Q01DX009 (ip), vehicle: saline): 6 of 6

CCCCN=C(N)N/N=C(\C)c1ccc(-c2ccccc2)cc1
survivor count (dose: 25.0 mg/kg/injection, schedule: Q04DX002 (ip), vehicle: saline with Tween-80): 0 of 6 | survivor count (dose: 50.0 mg/kg/injection, schedule: Q04DX002 (ip), vehicle: saline with Tween-80): 0 of 6 | survivor count (dose: 100.0 mg/kg/injection, schedule: Q04DX002 (ip), vehicle: saline with Tween-80): 0 of 6

COc1cc2cc[n+](C)cc2cc1OC
T/C (dose: 50.0 mg/kg/injection, schedule: Q01DX009 (ip), vehicle: water): 125 and 128 % of control

[I][Hg][CH2]C1COCC([CH2][Hg][I])O1.[I][Hg][CH2]C1COCC([CH2][Hg][I])O1 (stereo unspecified)
survivor count [6]: 1 of 6 | survivor count [7]: 0 of 6 | survivor count [8]: 0 of 6

O=C(O)[C@H](Cc1ccccc1)N1C(=O)c2ccccc2C1=O
survivor count (dose: 1000.0 mg/kg/injection, schedule: Q01DX001 (ip), vehicle: saline with Tween-80): 1 of 6 | survivor count (dose: 2000.0 mg/kg/injection, schedule: Q01DX001 (ip), vehicle: saline with Tween-80): 0 of 6

N#CCCCN1C(=O)c2ccccc2C1=O
survivor count (dose: 200.0 mg/kg/injection, schedule: Q01DX009 (ip), vehicle: Klucel (hydroxypropylcellulose) (HPC)): 0 of 6 | survivor count (dose: 400.0 mg/kg/injection, schedule: Q01DX009 (ip), vehicle: Klucel (hydroxypropylcellulose) (HPC)): 0 of 6

O=C(N/N=C\C12CC3CC(CC(C3)C1)C2)c1ccncc1
survivor count [5]: 6 of 6

O=C(N=Nc1c(Cl)c(O)c2ccccc2c1O)c1ccccc1O
survivor count [9]: 5 of 6 | survivor count [5]: 0 of 6

CCC[CH2][Sn]([CH2]CCC)([O]S(=O)c1ccccc1)[O]S(=O)c1ccccc1 (stereo unspecified)
T/C [10]: 130 % of control | survivor count [10]: 4 of 6 | survivor count (dose: 25.0 mg/kg/injection, schedule: Q01DX001 (ip), vehicle: saline with Tween-80): 0 of 6 and 3 of 6 | survivor count (dose: 50.0 mg/kg/injection, schedule: Q01DX001 (ip), vehicle: saline with Tween-80): 0 of 6

CCCCC/C(C=C(C#N)C#N)=C/c1ccccc1
survivor count [11]: 6 of 6 | T/C [9]: 143 % of control | survivor count [5]: 5 of 6

O=C1Nc2ccccc2C12Nc1ccccc1N2
survivor count (dose: 100.0 mg/kg/injection, schedule: Q04DX003 (ip), vehicle: Klucel (hydroxypropylcellulose) (HPC)): 6 of 6 | survivor count [1]: 6 of 6

CCCCCCCOCC(=O)O
survivor count [5]: 1 of 6

N=C(N)SCc1cccc2c(=O)cc(-c3ccccc3)oc12
T/C (dose: 100.0 mg/kg/injection, schedule: Q01DX009 (ip), vehicle: saline): 130 [5 of 6 alive] and 133 % of control

COc1cc2c(cc1OC)C1C(=O)c3ccc4c(c3OC1CO2)CC(C(C)(O)CO)O4 (stereo unspecified)
survivor count (dose: 40.0 mg/kg/injection, schedule: Q01DX005 (ip), vehicle: DMSO): 0 of 6

C1=NC(C2CC2)c2ccc3c([nH]c4ccccc43)c2N1 (stereo unspecified)
survivor count [4]: 0 of 5

FC(F)(Cl)c1nc2nc(Cl)c(Cl)nc2[nH]1
survivor count (dose: 200.0 mg/kg/injection, schedule: Q01DX009 (ip), vehicle: other): 5 of 6 | T/C (dose: 400.0 mg/kg/injection, schedule: Q04DX003 (ip), vehicle: other): 125 % of control

CC1=C(CCC(C)CO)OC2CC3C4CCC5CC(O)CCC5(C)C4CCC3(C)C12 (stereo unspecified)
survivor count (dose: 50.0 mg/kg/injection, schedule: Q01DX009 (ip), vehicle: suspension in saline): 5 of 6

Cc1ccccc1-c1cc2ccccc2c(N)n1
survivor count [11]: 0 of 6

Clc1cc(Cl)nc(N2CC2)n1
survivor count (dose: 20.0 mg/kg/injection, schedule: Q01DX009 (ip), vehicle: saline with Tween-80): 0 of 6

CC(C)(C)c1ccc(C(=O)O)c(O)c1.CC(C)(C)c1ccc(C(=O)O)c(O)c1.[Cu]
survivor count [7]: 3 of 6 | survivor count [8]: 3 of 6 | survivor count (dose: 400.0 mg/kg/injection, schedule: Q04DX003 (ip), vehicle: saline with Tween-80): 0 of 6

CC1(C)C=C(O)C(=O)C(O)=C1
survivor count (dose: 100.0 mg/kg/injection, schedule: Q01DX005 (ip), vehicle: Klucel (hydroxypropylcellulose) (HPC)): 0 of 6 | survivor count (dose: 200.0 mg/kg/injection, schedule: Q01DX005 (ip), vehicle: Klucel (hydroxypropylcellulose) (HPC)): 0 of 6
